Measurements: patent publication US20040063627A1 (BROWN UNIVERSITY RESEARCH FOUNDATION, published 2004)
Results are given in words; binding and its absence hold for the method and conditions named. Some entries that bind do so weakly or less than the wild type.

Protein sequences, listed by entry. Tags and fused reporters are not part of them. Lines headed by an entry give the natural chain unless they say otherwise; changes in a name come on top. Residues count along the entry.
UniProt P21810: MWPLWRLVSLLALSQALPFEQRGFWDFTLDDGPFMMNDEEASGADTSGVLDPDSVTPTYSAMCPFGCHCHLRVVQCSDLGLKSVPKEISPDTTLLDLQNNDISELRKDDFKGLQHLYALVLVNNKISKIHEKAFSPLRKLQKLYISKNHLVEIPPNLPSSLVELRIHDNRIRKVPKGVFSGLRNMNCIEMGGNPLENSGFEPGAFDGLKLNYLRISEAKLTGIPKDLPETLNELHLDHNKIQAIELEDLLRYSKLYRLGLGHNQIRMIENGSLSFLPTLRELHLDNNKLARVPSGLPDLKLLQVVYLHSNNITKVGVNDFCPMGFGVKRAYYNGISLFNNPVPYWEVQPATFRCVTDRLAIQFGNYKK
UniProt P21793, residues 31-360: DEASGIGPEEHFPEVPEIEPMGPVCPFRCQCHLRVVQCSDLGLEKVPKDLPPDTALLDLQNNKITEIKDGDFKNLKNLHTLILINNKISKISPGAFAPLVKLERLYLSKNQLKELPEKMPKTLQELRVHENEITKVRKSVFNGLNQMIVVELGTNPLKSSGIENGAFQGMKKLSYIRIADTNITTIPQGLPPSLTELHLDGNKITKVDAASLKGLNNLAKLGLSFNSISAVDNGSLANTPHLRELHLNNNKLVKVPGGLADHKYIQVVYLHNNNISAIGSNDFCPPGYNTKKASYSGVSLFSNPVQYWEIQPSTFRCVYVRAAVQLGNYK

Experiments:
[1] = biological target: T1, α-dystroglycan (dystroglycan as named in the overlay assays; fragment not named at the place) (human) (UniProt Q14118); test: assay not described at this place
T1 sequence (looked up): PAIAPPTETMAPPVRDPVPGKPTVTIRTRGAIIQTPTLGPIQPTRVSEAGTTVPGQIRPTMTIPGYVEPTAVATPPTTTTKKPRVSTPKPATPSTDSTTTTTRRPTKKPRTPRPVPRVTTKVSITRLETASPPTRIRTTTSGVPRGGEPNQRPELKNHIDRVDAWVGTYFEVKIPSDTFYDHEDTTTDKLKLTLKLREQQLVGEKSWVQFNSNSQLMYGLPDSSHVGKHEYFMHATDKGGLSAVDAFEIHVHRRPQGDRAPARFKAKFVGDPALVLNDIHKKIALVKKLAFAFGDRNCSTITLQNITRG

[2] = biological target: T1, α-dystroglycan (dystroglycan as named in the overlay assays; fragment not named at the place) (human); test: dystroglycan blot overlay, 4 µg loaded (FIG. 7)
[3] = biological target: T1, α-dystroglycan (dystroglycan as named in the overlay assays; fragment not named at the place) (human); test: dystroglycan blot overlay (FIG. 7)
[4] = biological target: T2, native α-sarcoglycan from detergent extracts of cultured mouse myotubes (printed 'native human', isolated from cultured mouse myotubes) (UniProt P82350); test: myotube detergent extract incubated with recombinant human core biglycan, immunoprecipitation with antibodies to α-sarcoglycan, Western blot with antibodies to biglycan (FIG. 8D)
T2 sequence (looked up): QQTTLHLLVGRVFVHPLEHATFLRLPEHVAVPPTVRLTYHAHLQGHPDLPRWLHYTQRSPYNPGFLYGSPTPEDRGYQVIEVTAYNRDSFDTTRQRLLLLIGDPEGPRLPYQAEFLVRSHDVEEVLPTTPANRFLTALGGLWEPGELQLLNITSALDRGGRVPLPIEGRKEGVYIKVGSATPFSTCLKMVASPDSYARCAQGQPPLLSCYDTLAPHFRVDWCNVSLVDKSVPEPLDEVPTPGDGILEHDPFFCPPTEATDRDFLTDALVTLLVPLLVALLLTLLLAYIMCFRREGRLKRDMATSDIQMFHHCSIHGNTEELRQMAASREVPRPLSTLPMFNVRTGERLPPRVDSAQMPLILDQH

## Human biglycan produced in the vaccinia system (mixture of core biglycan and proteoglycan biglycan) (from UniProt P21810 38-368)
[1]
  binding: binds

## decorin purified from bovine articular cartilage (Sigma) (from UniProt P21793 31-360)
[2]
  binding: binds

B1: biglycan purified from bovine articular cartilage (Sigma) (protein, UniProt P21809 38-369, looked up)
chain: DEEASGAETTSGIPDLDSLPPTYSAMCPFGCHCHLRVVQCSDLGLKAVPKEISPDTTLLDLQNNDISELRKDDFKGLQHLYALVLVNNKISKIHEKAFSPLRKLQKLYISKNHLVEIPPNLPSSLVELRIHDNRIRKVPKGVFSGLRNMNCIEMGGNPLENSGFEPGAFDGLKLNYLRISEAKLTGIPKDLPETLNELHLDHNKIQAIELEDLLRYSKLYRLGLGHNQIRMIENGSLSFLPTLRELHLDNNKLSRVPAGLPDLKLLQVVYLHTNNITKVGVNDFCPVGFGVKRAYYNGISLFNNPVPYWEVQPATFRCVTDRLAIQFGNYKK
modifications: native glycosaminoglycan chains (not further described)
[2]
  binding: binds
[3]
  binding: binds

B2: biglycan core (recombinant human biglycan, no side chains) (protein, not shown: small tags and cut ends)
chain: HHHHHHESLEDEEASGADTSGVLDPDSVTPTYSAMCPFGCHCHLRVVQCSDLGLKSVPKEISPDTTLLDLQNNDISELRKDDFKGLQHLYALVLVNNKISKIHEKAFSPLRKLQKLYISKNHLVEIPPNLPSSLVELRIHDNRIRKVPKGVFSGLRNMNCIEMGGNPLENSGFEPGAFDGLKLNYLRISEAKLTGIPKDLPETLNELHLDHNKIQAIELEDLLRYSKLYRLGLGHNQIRMIENGSLSFLPTLRELHLDNNKLARVPSGLPDLKLLQVVYLHSNNITKVGVNDFCPMGFGVKRAYYNGISLFNNPVPYWEVQPATFRCVTDRLAIQFGNYKK
[4]
  binding: binds
